Measured values published in patent US11713341B1, “Antimicrobial NCR13 variant peptides” (Vestaron Corporation, priority 2022, dated 2023).
Where a SMILES comes first, the peptide text is derived from it.

System: Botrytis cinerea
Assay: Antimicrobial bioassay (Botrytis cinerea): growth inhibition by OD600
Type: cell-based
Settings: COG = Cost of goods, yield improvement times the activity improvement, relative to NCR13a
Procedure: The antimicrobial effect of the NCR13 variant peptides (NVPs) of the present disclosure were evaluated against the fungal species, Botrytis cinerea. […] The growth of Botrytis cinerea was then assessed via OD600 nm after incubation with a given NVP at room temperature after 96 hours. The IC50 of each peptide analyzed is shown in ppm.
The antimicrobial effect of the NCR13 variant peptides (NVPs) of the present disclosure were evaluated against the fungal species, Botrytis cinerea. […] The growth of Botrytis cinerea was then assessed via OD600 nm after incubation with a given NVP at room temperature after 96 hours.
The NVPs assessed were as follows: NVPM3 (+L) (SEQ ID NO: 5); NVPM5 (+M) (SEQ ID NO: 7); NVPM6 (+F) (SEQ ID NO: 8); NVPM7 (+W) (SEQ ID NO: 9); NVPM9 (+S) (SEQ ID NO: 11); NVPM11 (+Y) (SEQ ID NO: 13); NVPM14 (+D) (SEQ ID NO: 16); and NVPM15 (+E) (SEQ ID NO: 17).
NVPs having an amino acid sequence of SEQ ID NOs: 5, 7, 8, 9, 11, 13, 16, and 17 were generated as described above in Example 1. The peptide, NCR13a, having an amino acid sequence of: […] (SEQ ID NO: 2) was selected as a comparator peptide, with which the antifungal activity of the foregoing NVPs was compared.
The fungal species was Botrytis cinerea was cultured in potato dextrose agar plates. Fungal spores were collected from the agar plates and suspended into de-ionized water, followed by enumeration in a Petroff-Hausser counting chamber (VWR).
The 96-well plates were incubated at room temperature for 96 hours without shaking. The OD600 of the culture plate was determined using SpectraMax plate reader. Relative OD600 was determined by normalizing cell growth to control wells containing neither NVPs nor NCR13a. The OD600 was used to determine IC50.

Structure (SMILES)	COG Improvement
CC[C@H](C)[C@H](NC(=O)[C@H](CS)NC(=O)[C@H](CCCCN)NC(=O)[C@@H]1CCCN1C(=O)[C@@H](NC(=O)[C@H](CCCCN)NC(=O)[C@@H]1CCCN1C(=O)[C@H](CCCCN)NC(=O)[C@H](CCCNC(=N)N)NC(=O)[C@H](CS)NC(=O)[C@H](C)NC(=O)[C@H](Cc1ccccc1)NC(=O)[C@H](CCCCN)NC(=O)[C@H](CCCCN)NC(=O)[C@H](CS)NC(=O)[C@H](CC(=O)O)NC(=O)[C@H](CCCCN)NC(=O)[C@H](CC(=O)O)NC(=O)[C@H](CO)NC(=O)[C@H](CCC(N)=O)NC(=O)[C@H](CS)NC(=O)[C@@H]1CCCN1C(=O)[C@H](CCCCN)NC(=O)[C@@H](NC(=O)[C@@H](N)CC(=O)O)[C@@H](C)O)C(C)C)C(=O)N[C@@H](CC(N)=O)C(=O)NCC(=O)N[C@@H](Cc1ccccc1)C(=O)N[C@@H](CS)C(=O)N[C@@H](CCCCN)C(=O)N[C@@H](CS)C(=O)N[C@H](C(=O)N[C@@H](CCCNC(=N)N)C(=O)O)C(C)C [NVPM14] (H-DTKPCQSDKDCKKFACRKPKVPKCINGFCKCVR-OH; N-terminus and C-terminus assumed)	2.57
CC[C@H](C)[C@H](NC(=O)[C@H](CS)NC(=O)[C@H](CCCCN)NC(=O)[C@@H]1CCCN1C(=O)[C@@H](NC(=O)[C@H](CCCCN)NC(=O)[C@@H]1CCCN1C(=O)[C@H](CCCCN)NC(=O)[C@H](CCCNC(=N)N)NC(=O)[C@H](CS)NC(=O)[C@H](C)NC(=O)[C@H](Cc1ccccc1)NC(=O)[C@H](CCCCN)NC(=O)[C@H](CCCCN)NC(=O)[C@H](CS)NC(=O)[C@H](CC(=O)O)NC(=O)[C@H](CCCCN)NC(=O)[C@H](CC(=O)O)NC(=O)[C@H](CO)NC(=O)[C@H](CCC(N)=O)NC(=O)[C@H](CS)NC(=O)[C@@H]1CCCN1C(=O)[C@H](CCCCN)NC(=O)[C@@H](NC(=O)[C@@H](N)CCC(=O)O)[C@@H](C)O)C(C)C)C(=O)N[C@@H](CC(N)=O)C(=O)NCC(=O)N[C@@H](Cc1ccccc1)C(=O)N[C@@H](CS)C(=O)N[C@@H](CCCCN)C(=O)N[C@@H](CS)C(=O)N[C@H](C(=O)N[C@@H](CCCNC(=N)N)C(=O)O)C(C)C [NVPM15] (H-ETKPCQSDKDCKKFACRKPKVPKCINGFCKCVR-OH; N-terminus and C-terminus assumed)	2.11
